This is one part of the list.

The subject of the assay is T1, CTL2-GFP (C. trachomatis L2/434/Bu, GFP-expressing).
T1 construct: L2/434/Bu, GFP-expressing
Set-up: species or system HeLa; Intracellular C. trachomatis growth in HeLa cells, bulk GFP fluorescence relative to DMSO. Particulars: bulk GFP, single well; 28.5 h, 10 µM; inhibitor.
For the molecule `Clc1ccc(COc2nccnc2OC2CCN(CCOc3ccccc3)CC2)cc1Cl` [CBK083121T], the “% of control remaining” value was determined as 126.263%. As for `CCn1cc(-c2cncn2CCCC(C)(C)CO)cn1` [CBK281704], the figure is 124.064%; as for `COc1ccc(CNCCN)cc1` [CBK013010], 130.545%. Under `O=C(Cn1c2ccccc2c2ccccc21)N1CCn2cnnc2C1` [CBK283724] stands 114.829%; under `Fc1ccccc1CN1CCC(Oc2cncc(OCCN3CCOCC3)n2)C1` (stereo not shown) [CBK084479], 106.7%; under `O=C(Nc1ccc(OCc2ccoc2)cc1C(=O)O)c1ccc(Cl)cc1Cl` [CBK003768D], 94.5093%.

In the case of `Nc1nc2c3c(c(-c4ccccc4)nc2[nH]1)CCCC3` [CBK020648], the “% of control remaining” value came to 95.5637%. `Cc1cc(C)nc(CCNCc2c(C(C)C)nn(C)c2N(C)C)n1` [CBK305159]: the “% of control remaining” value stood at 100.033%. As for `O=C(COc1ccc2c(c1)OCO2)N1CCN(Cc2ccccc2)CC1` [CBK269977], the figure is 132.958%. Under `Cc1ccc(CN(CC2CCOC2)C2CC(C)(C)NC(C)(C)C2)o1` (stereo not shown) [CBK283174] stands 92.1021%; under `Cn1c(Cc2csc(NC(=O)c3ccc(Cl)cc3F)n2)n[nH]c1=S` [CBK296635], 117.559%. As to `CC1(NC(=O)c2cccc(OCCN3CCCC3=O)c2)CCC1` [CBK281602], the “% of control remaining” value is reported as 113.239%. Under `CCCCCc1ccc(S(=O)(=O)N2CCN(C(=O)C3CCCO3)CC2)cc1` (stereo not shown) [CBK044329] stands 68.4224%; under `COc1ccc(CCNC(=O)c2nc3ncccn3n2)cc1OC` [CBK268795], 176.749%. Under `CN1CCOc2ccccc2C(=O)NC/C=C/CC2(CCN(C(=O)c3ccc(F)cc3)CC2)C1=O` [CBK292055] stands 155.954%; under `Cc1ccc(NC(=O)Cn2cnc3sc(C(=O)Nc4ccccc4)c(C)c3c2=O)cc1` [CBK265931], 199.615%.

In the case of `CCOCc1c(O)ccc2c([N+](=O)[O-])c(C)n(-c3ccc(OC)cc3)c12` [CBK095589], the “% of control remaining” value is given as 93.4485%. Under `OCc1ccc(-n2ncc(-c3ccc(Br)cc3F)n2)cc1` [CBK112920] stands 108.264%; under `CC(C)Cn1cnc2c(Cl)nc3ccccc3c21` [CBK017530], 107.564%.

On to `Cc1cccnc1NC(=S)Nc1ccc(S(N)(=O)=O)cc1` [CBK267049], for which the “% of control remaining” value is 125.893%. Under `O=C(CSc1ncccc1C(=O)O)c1ccccc1` [CBK273178] stands 112.905%. Under `Cc1cc(C(=O)NCCc2ccc(S(N)(=O)=O)cc2)ccc1[N+](=O)[O-]` [CBK264390] stands 117.773%. As for `O=C(NCCN1CCc2ccccc21)C1CC2C=CC1O2` (stereo not shown) [CBK283158], the figure is 105.042%; as for `Cc1cc(NS(=O)(=O)c2ccccc2Br)n(C)n1` [CBK067376], 97.3197%. In the case of `C=CCC1c2cccc(C(=O)O)c2C(=O)N1c1cccc(OC)c1` (stereo not shown) [CBK113160], the “% of control remaining” value is 119.482%.

As for `O=C(O)CNC(=O)CN1C(=O)c2ccc(C(=O)O)cc2C1=O` [CBK264080], the “% of control remaining” value is 100%. In the case of `COc1nc(OCCNS(=O)(=O)c2ccc(C)cc2)nc(N(C)C)n1` [CBK266752], the “% of control remaining” value is on record as 104.157%. Under `COc1cccc2c(=O)n(CCCn3nc(C)nc3C)cnc12` [CBK307295] stands 104.028%; under `CC(=O)Nc1ccc(-c2cncc(NC3CCC(O)CC3)n2)cc1` (stereo not shown) [CBK065886], 190.718%; under `Clc1ccccc1-c1nnc(Cn2c3ccc(Br)cc3c3nc4ccccc4nc32)o1` [CBK269091], 114.748%. Under `O=C(Nc1ccccc1[N+](=O)[O-])c1cc(S(=O)(=O)NCc2ccccc2)c(Cl)cc1Cl` [CBK263240] stands 95.6236%; under `CN(C)S(=O)(=O)NC1CC(C)(C)Cc2c1cnn2-c1ccc(F)cc1` (stereo not shown) [CBK306646], 103.483%.

Regarding `COc1cc(/C=N/NC(=O)CCN2CCN(C)CC2)cc(OC)c1O` [CBK261500], the “% of control remaining” value was 110.484%. Under `COc1ccc(C(N)C2(O)CCN(Cc3ccccc3)CC2)cc1` (stereo not shown) [CBK091386] stands 124.042%; under `CN1CCN(c2nc(-c3cc4ccccc4s3)cn3ccnc23)CC1` [CBK066388], 93.2809%; under `Cc1cccn2cc(CC(=O)NC3(C#N)CCCCC3)nc12` [CBK306252], 102.729%.

On to `Cc1onc(-c2ccccc2)c1CNC(=O)Cn1cc(C)c(=O)[nH]c1=O` [CBK144094], for which the “% of control remaining” value came out at 133.476%. As for `CN(C)c1ccc(NC(=O)C(Cc2ccccc2)N2C(=O)c3ccccc3C2=O)cc1` (stereo not shown) [CBK262413], the figure is 103.362%.

For the molecule `Cc1ccc(S(=O)(=O)/N=C(/NCc2ccc(Cl)cc2)Nc2nc(C)cc(C)n2)cc1` [CBK263785], the “% of control remaining” value is 105.877%. As for `N#Cc1cc(CN2CCCN(S(=O)(=O)c3ccc(C(=O)c4ccccc4)cc3)CC2)ccc1F` [CBK062768], the figure is 83.2407%; as for `COC(=O)c1ccc(N2CCN(C(C)c3nnc(C)o3)C(C)C2)cc1` (stereo not shown) [CBK304926], 121.384%; as for `CCN1CCN(C(=O)c2ccc(CN(c3ccc(C)c(C)c3)S(C)(=O)=O)cc2)CC1` [CBK267132], 167.904%. In the case of `Cc1cc(OCCCCNCCO)ccc1Cl` [CBK033516], the “% of control remaining” value stood at 93.7722%. Consider `Cn1ncc2ccc(-c3nnn[nH]3)cc21` [CBK304776], for which the “% of control remaining” value is on record as 121.001%. As for `COc1ncc(-c2cn3ccnc3c(N3CCN(CCO)CC3)n2)c(OC)n1` [CBK037869], the figure is 88.7637%. As for `CC1CCc2n[nH]c(C(=O)N3CCC(O)C(C)C3)c2C1` (stereo not shown) [CBK283207], the figure is 114.213%; as for `CCC(C)NCc1cccc(Oc2ncccn2)c1` (stereo not shown) [CBK288090], 110.146%. As for `CC1(C)C2C(=O)C(c3ccccn3)=C(N)N2C(C)(C)C1(C)C` (stereo not shown) [CBK022153], the figure is 120.93%; as for `Fc1cc2c3c(c1)c1c(n3CCO2)CCNCC1` [CBK018018C], 92.4055%; as for `O=C(NCc1ccccn1)c1cc(-c2ccc(Cl)cc2)on1` [CBK116558], 157.457%.

Take `c1cnc2cc(Oc3ccc4nccnc4c3)ccc2n1` [CBK267266]: the “% of control remaining” value turned out to be 128.565%. As for `COc1ccc(CNC(=O)N2CCN(c3cc(C(F)(F)F)ccn3)CC2)cc1OC` [CBK162344], the figure is 113.764%.

Values taken from PMC12040169 (PLOS Biology, 2025).
